Assay results published in the supplement of paper PMC4371806.
The full ranking holds about 1,600 compounds; the median of “plate-normalized OD600 growth (mean of duplicates)” is about 0.31, and the lowest 2% start at about 0.23. This is one part of the list.

Tested on: Escherichia coli BW25113
Assay: plate-normalized OD600 growth (mean of duplicates) (OD600 (normalized)); higher = more growth (less inhibition)
Details: 10 µM
Method: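 E. coli BW25113 in LB (100 µl, 96-well, no shaking) was exposed to 10 µM of each compound (here the ChemBridge subset of a ~30,000-member library) and grown at 37°C for 24 h or 15°C for 48 h, in duplicate. Growth was read as OD600 and the duplicate ODs were normalized across screening plates to correct plate-to-plate variation.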

## C=CCNc1nc(-c2ccncc2)cs1
temperature: 15°C, 48 h
  plate-normalized OD600 growth: 0.236
temperature: 37°C, 24 h
  plate-normalized OD600 growth: 0.589

## CS(=O)(=O)N(Cc1ccc(C(=O)Nc2cccnc2)cc1)c1ccccc1
temperature: 15°C, 48 h
  plate-normalized OD600 growth: 0.264
temperature: 37°C, 24 h
  plate-normalized OD600 growth: 0.621

## Cc1ccc(-c2cc3c(nn2)-c2ccccc2C3=O)cc1
temperature: 15°C, 48 h
  plate-normalized OD600 growth: 0.25
temperature: 37°C, 24 h
  plate-normalized OD600 growth: 0.641

## N#Cc1cc(Cc2ccc(N)c(C#N)c2)ccc1N
temperature: 15°C, 48 h
  plate-normalized OD600 growth: 0.251
temperature: 37°C, 24 h
  plate-normalized OD600 growth: 0.591

## CCN(CC)C(=O)C1CCCN(C/C=C/c2ccccc2)C1 (stereo not given)
temperature: 15°C, 48 h
  plate-normalized OD600 growth: 0.24
temperature: 37°C, 24 h
  plate-normalized OD600 growth: 0.611

## COc1ccc(N2C(=O)CC(Nc3ccc(N4CCCCC4)cc3)C2=O)cc1 (stereo not given)
temperature: 15°C, 48 h
  plate-normalized OD600 growth: 0.25
temperature: 37°C, 24 h
  plate-normalized OD600 growth: 0.62

## CCN(CC)S(=O)(=O)c1cccc(C(=O)Nc2ccc(OC)cc2)c1
temperature: 15°C, 48 h
  plate-normalized OD600 growth: 0.245
temperature: 37°C, 24 h
  plate-normalized OD600 growth: 0.644

## c1ccc(CCN2CCN(c3ccccc3)CC2)cc1
temperature: 15°C, 48 h
  plate-normalized OD600 growth: 0.227
temperature: 37°C, 24 h
  plate-normalized OD600 growth: 0.62

## O=C(O)CSc1cccc(C(=O)Nc2ccc(Br)cc2)c1
temperature: 15°C, 48 h
  plate-normalized OD600 growth: 0.249
temperature: 37°C, 24 h
  plate-normalized OD600 growth: 0.611

## Cc1[nH]nc2c1C1(CCCCC1)C(C#N)=C(N)O2
temperature: 15°C, 48 h
  plate-normalized OD600 growth: 0.258
temperature: 37°C, 24 h
  plate-normalized OD600 growth: 0.629

## COc1ccc(Cl)cc1NC(=O)c1ccccc1Br
temperature: 15°C, 48 h
  plate-normalized OD600 growth: 0.222
temperature: 37°C, 24 h
  plate-normalized OD600 growth: 0.627

## Cc1ccccc1C(=O)N1CCCCC1CO (stereo not given)
temperature: 15°C, 48 h
  plate-normalized OD600 growth: 0.294
temperature: 37°C, 24 h
  plate-normalized OD600 growth: 0.624

## O=C(O)CCC(=O)Nc1ccc(-c2nc3ccccc3[nH]2)cc1
temperature: 15°C, 48 h
  plate-normalized OD600 growth: 0.247
temperature: 37°C, 24 h
  plate-normalized OD600 growth: 0.602

## CC(=O)N(C)c1ccc(NC(=O)c2ccc(-c3ccccc3)cc2)cc1
temperature: 15°C, 48 h
  plate-normalized OD600 growth: 0.26
temperature: 37°C, 24 h
  plate-normalized OD600 growth: 0.63

## COc1ccc(N(C(=O)c2ccc(F)cc2)C2=CC3CCC(C2)N3C)cc1 (stereo not given)
temperature: 15°C, 48 h
  plate-normalized OD600 growth: 0.247
temperature: 37°C, 24 h
  plate-normalized OD600 growth: 0.619

## COCc1cc(=O)n2[nH]c(C)c(-c3ccc(OC)cc3)c2n1
temperature: 15°C, 48 h
  plate-normalized OD600 growth: 0.252
temperature: 37°C, 24 h
  plate-normalized OD600 growth: 0.612

## COc1cccc(OC)c1C(=O)NCC#N
temperature: 15°C, 48 h
  plate-normalized OD600 growth: 0.29
temperature: 37°C, 24 h
  plate-normalized OD600 growth: 0.648

## Cc1ccc(OCCCCN2CCCCC2)cc1
temperature: 15°C, 48 h
  plate-normalized OD600 growth: 0.264
temperature: 37°C, 24 h
  plate-normalized OD600 growth: 0.635

## Cc1ccc(-c2csc(/C(C#N)=C/c3cccnc3)n2)c(C)c1
temperature: 15°C, 48 h
  plate-normalized OD600 growth: 0.25
temperature: 37°C, 24 h
  plate-normalized OD600 growth: 0.657

## CCN(CC)C(=O)C1CCCN(Cc2cccc([N+](=O)[O-])c2)C1 (stereo not given)
temperature: 15°C, 48 h
  plate-normalized OD600 growth: 0.249
temperature: 37°C, 24 h
  plate-normalized OD600 growth: 0.606

## N#CC1=C(N)Oc2cc(O)ccc2C1c1cccc([N+](=O)[O-])c1 (stereo not given)
temperature: 15°C, 48 h
  plate-normalized OD600 growth: 0.251
temperature: 37°C, 24 h
  plate-normalized OD600 growth: 0.596

## Cc1ccc(C(=O)c2ccccc2C(=O)O)c(O)c1
temperature: 15°C, 48 h
  plate-normalized OD600 growth: 0.244
temperature: 37°C, 24 h
  plate-normalized OD600 growth: 0.614

## N#CC1=C(N)Oc2cc(N)ccc2C1c1ccc(Br)s1 (stereo not given)
temperature: 15°C, 48 h
  plate-normalized OD600 growth: 0.262
temperature: 37°C, 24 h
  plate-normalized OD600 growth: 0.636

## OC(CC#CCN1CCCC1)(c1ccccc1)c1ccccc1
temperature: 15°C, 48 h
  plate-normalized OD600 growth: 0.253
temperature: 37°C, 24 h
  plate-normalized OD600 growth: 0.615

## O=C(c1ccc([N+](=O)[O-])o1)N1CCN(c2cccc(Cl)c2)CC1
temperature: 15°C, 48 h
  plate-normalized OD600 growth: 0.212
temperature: 37°C, 24 h
  plate-normalized OD600 growth: 0.611

## CSc1nc2sc3c(c2c(=O)n1C)CCCC3
temperature: 15°C, 48 h
  plate-normalized OD600 growth: 0.246
temperature: 37°C, 24 h
  plate-normalized OD600 growth: 0.618

## Cc1ccc(N2C(=O)CC(N3CCN(c4ccccn4)CC3)C2=O)cc1Cl (stereo not given)
temperature: 15°C, 48 h
  plate-normalized OD600 growth: 0.236
temperature: 37°C, 24 h
  plate-normalized OD600 growth: 0.637

## Cc1nc2c(-c3ccccc3)c(Cc3ccccc3)[nH]n2c(=O)c1Cl
temperature: 15°C, 48 h
  plate-normalized OD600 growth: 0.257
temperature: 37°C, 24 h
  plate-normalized OD600 growth: 0.612

## O=C(c1ccco1)N1CCN(c2ccc([N+](=O)[O-])cc2)CC1
temperature: 15°C, 48 h
  plate-normalized OD600 growth: 0.244
temperature: 37°C, 24 h
  plate-normalized OD600 growth: 0.617

## CN1CCCN(Cc2cc(F)ccc2F)CC1
temperature: 15°C, 48 h
  plate-normalized OD600 growth: 0.273
temperature: 37°C, 24 h
  plate-normalized OD600 growth: 0.623

## CCC(C)(O)C#CCN1CCCCC1 (stereo not given)
temperature: 15°C, 48 h
  plate-normalized OD600 growth: 0.242
temperature: 37°C, 24 h
  plate-normalized OD600 growth: 0.628

## O=S1(=O)CCC(N2CCOCC2)C1 (stereo not given)
temperature: 15°C, 48 h
  plate-normalized OD600 growth: 0.267
temperature: 37°C, 24 h
  plate-normalized OD600 growth: 0.612

## CC(Oc1cccc2cccnc12)C(=O)NN (stereo not given)
temperature: 15°C, 48 h
  plate-normalized OD600 growth: 0.254
temperature: 37°C, 24 h
  plate-normalized OD600 growth: 0.628

## COc1ccc(NCc2ccncc2)cc1
temperature: 15°C, 48 h
  plate-normalized OD600 growth: 0.253
temperature: 37°C, 24 h
  plate-normalized OD600 growth: 0.629

## CC(=O)Nc1ccc(S(=O)(=O)N2CCN(Cc3ccc(F)cc3)CC2)cc1
temperature: 15°C, 48 h
  plate-normalized OD600 growth: 0.236
temperature: 37°C, 24 h
  plate-normalized OD600 growth: 0.606
